The values that follow come from the supplement of paper PMC4604168 (melanoma cell lines).

This is one part of the list. Repeats are few or missing, and single values can be far off.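 The apoptosis fraction was the count of cleaved-PARP antibody-stained nuclei relative to all DNA-stained nuclei, imaged in 1,536-well plates. Screening doses were set so most cells survived, and baseline and induced cleaved-PARP levels vary greatly across cell lines.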

This assay relates to UACC257. Kind of assay: cleaved PARP positive nuclei fraction relative to DMSO control; melanoma cells; higher = more apoptosis. Particulars: library dose: low library concentration; 72 h.
Take `Nc1ccn([C@@H]2O[C@H](CO)[C@@H](O)C2(F)F)c(=O)n1` [gemcitabine] + O=C(Nc1cccc(Cl)c1)Nc1ncc(CCNc2ncnc3ccsc23)s1 [SNS314] (first compound 0.0004 µM, partner dose 0.0008 µM): the “cleaved PARP positive nuclei fraction” value was determined as 121%.
`O=C(O)[C@@H]1[O][Sb](=[O])([O][Sb]2(=[O])[O][C@H]([C@H](O)CO)[C@H](O)[C@H](C(=O)O)[O]2)[O][C@H]([C@H](O)CO)[C@@H]1O` (stereo not given in full) [stibogluconate] + CC(C)CCN1c2nc(Nc3cc(F)c(O)c(F)c3)ncc2N(C)C(=O)C1C [BID1870] (first compound 2 µM, partner dose 0.2 µM): the “cleaved PARP positive nuclei fraction” value amounted to 19.4%.
Next, `C=C(c1ccc(C(=O)O)cc1)c1cc2c(cc1C)C(C)(C)CCC2(C)C` [Bexarotene] + COc1ccc2c(c1)CCC1C2CCC2(C)C(NCCCCCCN3C(=O)C=CC3=O)CCC12 [U73122] (first compound 2 µM, partner dose 0.4 µM): 127%; `C=C(c1ccc(C(=O)O)cc1)c1cc2c(cc1C)C(C)(C)CCC2(C)C` [Bexarotene] + Oc1nc(-c2ccc(C(F)(F)F)cc2)nc2c1CSCC2 [XAV939] (first compound 2 µM, partner dose 2 µM): 111%; `CS(=O)(=O)CCNCc1ccc(-c2ccc3ncnc(Nc4ccc(OCc5cccc(F)c5)c(Cl)c4)c3c2)o1` [lapatinib] + NC(=O)Nc1cc(-c2cccc(F)c2)sc1C(=O)N[C@H]1CCCNC1 [AZD7762] (first compound 0.8 µM, partner dose 0.02 µM): 95%.
